Experimental data reported in article PMC12704761, “RAD51AP1 is a versatile RAD51 modulator” (Proceedings of the National Academy of Sciences of the …, 2025).
Results are given in words; binding and its absence hold for the method and conditions named. Some results given as binding are weak or reduced against the parent protein; the word gives no strength.

T1: RAD51AP1 (RAD51 associated protein 1), full-length wild type (UniProt Q96B01)
T1 sequence: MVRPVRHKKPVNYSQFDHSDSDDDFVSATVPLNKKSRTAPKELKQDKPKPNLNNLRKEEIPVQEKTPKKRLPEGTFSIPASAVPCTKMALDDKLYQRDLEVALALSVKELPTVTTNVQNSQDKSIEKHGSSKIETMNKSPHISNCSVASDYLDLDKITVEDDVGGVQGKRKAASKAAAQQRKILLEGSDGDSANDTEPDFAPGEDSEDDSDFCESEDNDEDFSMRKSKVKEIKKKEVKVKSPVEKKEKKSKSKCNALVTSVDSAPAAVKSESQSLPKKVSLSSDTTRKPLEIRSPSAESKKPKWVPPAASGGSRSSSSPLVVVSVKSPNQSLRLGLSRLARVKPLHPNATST

T2: RAD51AP1 Site-NC double mutant, full-length (UniProt Q96B01)
T2 sequence: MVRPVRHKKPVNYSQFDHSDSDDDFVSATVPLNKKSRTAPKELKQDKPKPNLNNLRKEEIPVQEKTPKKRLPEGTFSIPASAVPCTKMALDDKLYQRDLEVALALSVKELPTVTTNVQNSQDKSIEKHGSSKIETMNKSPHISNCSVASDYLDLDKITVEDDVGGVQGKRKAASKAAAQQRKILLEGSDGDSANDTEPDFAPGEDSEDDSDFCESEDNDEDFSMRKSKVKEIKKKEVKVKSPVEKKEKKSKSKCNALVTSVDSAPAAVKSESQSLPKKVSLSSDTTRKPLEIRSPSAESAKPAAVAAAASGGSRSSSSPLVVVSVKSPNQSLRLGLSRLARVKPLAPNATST


Experiments:
[1] = target: T1, RAD51AP1 (RAD51 associated protein 1), full-length wild type; test: pull-down; full-length RAD51AP1 (2 µM) with RAD51 or RAD51-F86E (2 µM), with and without ATP; both purified
[2] = target: T2, RAD51AP1 Site-NC double mutant, full-length; test: pull-down; His-tagged full-length RAD51AP1 (1 µM) immobilised on magnetic cobalt resin, RAD51 (1 µM) in pull-down buffer with ATP and Mg2+, 37 °C, 5 min; SDS-PAGE of supernatant and eluate; both purified
[3] = target: T1, RAD51AP1 (RAD51 associated protein 1), full-length wild type; test: condition: only without ATP and Mg2+ in the pull-down buffer; pull-down; His-tagged full-length RAD51AP1 (1 µM) on cobalt resin, RAD51 (1 µM), ATP and Mg2+ omitted from the pull-down buffer; both purified

Molecule	binding [1]	binding [2]	binding [3]
RAD51-F86E (from UniProt Q06609 1-339)	no binding (tested: 2 μM)		
RAD51 recombinase (natural protein, RAD51 recombinase, wild type; expressed from the pCH1-derived plasmid pJ9; In the cryo-EM samples it stood as a filament on ssDNA with Ca2+-ATP, Mg2+-ATP or Mg2+-ADP; the introduction speaks of the human genome and the discussion sets 'mouse proteins' of earlier work apart; source: E. coli BL21 (DE3), coexpressed with His-MBP-BRC4 and GroEL, purified (HisTrap, HiTrap Heparin, HiTrap Q)) MAMQMQLEANADTSVEEESFGPQPISRLEQCGINANDVKKLEEAGFHTVEAVAYAPKKELINIKGISEAKADKILAEAAKLVPMGFTTATEFHQRRSEIIQITTGSKELDKLLQGGIETGSITEMFGEFRTGKTQICHTLAVTCQLPIDRGGGEGKAMYIDTEGTFRPERLLAVAERYGLSGSDVLDNVAYARAFNTDHQTQLLYQASAMMVESRYALLIVDSATALYRTDYSGRGELSARQMHLARFLRMLLRLADEFGVAVVITNQVVAQVDGAAMFAADPKKPIGGNIIAHASTTRLYLRKGRGETRICKIYDSPCLPEAEAMFAINADGVGDAKD		binds weakly	no binding
